According to paper PMC9170685:
These are yes or no findings as the source states them, for the method shown. Binding seen in cells or lysates may run through a third protein. Some entries that bind do so weakly or less than the wild type.

Sequences of proteins named here, by UniProt entry; tags and fusion partners are left off.
UniProt Q13546: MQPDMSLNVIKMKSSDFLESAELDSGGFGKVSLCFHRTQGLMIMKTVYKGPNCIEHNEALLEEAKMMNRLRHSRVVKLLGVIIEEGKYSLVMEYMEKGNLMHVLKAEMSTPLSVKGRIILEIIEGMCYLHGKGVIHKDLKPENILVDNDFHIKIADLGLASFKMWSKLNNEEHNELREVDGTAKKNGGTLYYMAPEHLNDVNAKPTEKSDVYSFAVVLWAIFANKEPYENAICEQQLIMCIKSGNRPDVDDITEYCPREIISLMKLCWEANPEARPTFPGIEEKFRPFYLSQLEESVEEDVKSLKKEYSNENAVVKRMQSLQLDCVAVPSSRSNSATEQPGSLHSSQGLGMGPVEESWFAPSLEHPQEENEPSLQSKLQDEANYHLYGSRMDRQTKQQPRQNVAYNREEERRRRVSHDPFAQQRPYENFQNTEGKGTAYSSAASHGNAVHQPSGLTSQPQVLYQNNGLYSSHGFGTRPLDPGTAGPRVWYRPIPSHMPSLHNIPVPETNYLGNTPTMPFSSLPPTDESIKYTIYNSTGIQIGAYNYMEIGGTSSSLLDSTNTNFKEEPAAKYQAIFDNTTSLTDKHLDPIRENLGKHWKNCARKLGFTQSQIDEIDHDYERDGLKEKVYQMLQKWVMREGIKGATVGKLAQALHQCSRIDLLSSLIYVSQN
UniProt Q9Y572: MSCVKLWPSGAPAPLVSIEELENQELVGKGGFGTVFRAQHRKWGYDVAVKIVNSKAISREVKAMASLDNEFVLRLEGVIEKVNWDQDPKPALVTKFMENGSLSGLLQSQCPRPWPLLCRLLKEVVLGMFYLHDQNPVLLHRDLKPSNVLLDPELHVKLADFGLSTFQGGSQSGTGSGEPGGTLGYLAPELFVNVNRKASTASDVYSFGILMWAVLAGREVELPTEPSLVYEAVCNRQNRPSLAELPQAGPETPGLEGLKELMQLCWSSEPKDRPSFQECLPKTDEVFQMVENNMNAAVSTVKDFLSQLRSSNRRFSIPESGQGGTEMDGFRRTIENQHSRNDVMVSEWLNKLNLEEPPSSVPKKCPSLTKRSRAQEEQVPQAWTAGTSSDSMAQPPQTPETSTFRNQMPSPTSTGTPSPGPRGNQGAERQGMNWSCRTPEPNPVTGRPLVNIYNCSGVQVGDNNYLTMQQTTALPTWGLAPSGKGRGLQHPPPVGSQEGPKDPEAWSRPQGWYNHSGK

Legend:
[1] = biological target: Receptor-interacting protein kinase 1 (RIPK1) (human (endogenous in BEAS-2B)) (UniProt Q13546); test: proximity ligation; BEAS-2B cells treated with LPS-exo or PBS-exo, fixed; Duolink kit with anti-RIP1 and anti-RIP3 antibodies
[2] = biological target: Receptor-interacting protein kinase 1 (RIPK1) (human (endogenous in BEAS-2B)) (UniProt Q13546); test: co-IP; lysates of LPS-treated BEAS-2B cells cocultured with exosomes of LPS-stimulated BMDMs (LPS-exo) over time; precipitating antibody not told

binding [1]: binds
binding [2]: binds
Substance: Receptor-interacting protein kinase 3 (RIPK3) (from UniProt Q9Y572 1-518)
